Results: patent publication EP0729956B1, “Benzothiophene compounds, intermediates, compositions, and methods” (ELI LILLY AND COMPANY, priority 1995, dated 1996)
Counter-ions that a name gives are not always drawn. The name of at least one read-out is uncertain.

System: ovariectomized rats
Test: Serum cholesterol analysis (OVX rat, 4-day dosing)
Assay type: in vivo, Sprague Dawley rats
Details: oral, daily for 4 days, hydrochloride
Excerpt: Seventy-five day old female Sprague Dawley rats (weight range of 200 to 225g) were obtained from Charles River Laboratories (Portage, MI). The animals were either bilaterally ovariectomized (OVX) or exposed to a Sham surgical procedure at Charles River Laboratories, and then shipped after one week. Upon arrival, they were housed in metal hanging cages in groups of 3 or 4 per cage and had ad libitum access to food (calcium content approximately 0.5%) and water for one week. Room temperature was maintained at 22.2° ± 1.7° C with a minimum relative humidity of 40%. The photoperiod in the room was 12 hours light and 12 hours dark.
After a one week acclimation period (therefore, two weeks post-OVX) daily dosing with test compound was initiated. […] The animals were then sacrificed by asphyxiation with CO2, the uterus was removed through a midline incision, and a wet uterine weight was determined.
Blood samples were allowed to clot at room temperature for 2 hours, and serum was obtained following centrifugation for 10 minutes at 3000 rpm. Serum cholesterol was determined using a Boehringer Mannheim Diagnostics high performance cholesterol assay. […] The hydrogen peroxide was then reacted with phenol and 4-aminophenazone in the presence of peroxidase to produce a p-quinone imine dye, which was read spectrophotemetrically at 500 nm. Cholesterol concentration was then calculated against a standard curve. […]

For `Oc1ccc(-c2sc3cc(O)ccc3c2Oc2ccc(OCCN3CCCCC3)cc2)cc1` [Example 20, [6-hydroxy-3-[4-[2-(1-piperidinyl)ethoxy]-phenoxy]-2-(4-hydroxyphenyl)]benzo [b]thiophene hydrochloride], the “Serum Cholesterol (% decrease vs. OVX)” value (dose 0.01 mg/kg) was 29.4% and the “Serum Cholesterol (% decrease vs. OVX)” value (dose 0.1 mg/kg) was 58.7%.
